Here are results for two sequences from publication PMC4414141.

The chains behind the UniProt entries cited, without tags or fusion partners. Residues count along the entry.
UniProt P11474, 76-151: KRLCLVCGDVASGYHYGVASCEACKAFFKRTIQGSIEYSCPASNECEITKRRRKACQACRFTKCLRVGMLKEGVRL

Holding throughout (assay): EMSA
One data set has as its target ERRalpha DBD (UniProt P11474). To be noted: EMSA: 50 nM bacterially purified protein, 60 ng poly(dI-dC); recombinant protein; protein details: GST. Background: A gel shift assay detects complexes by their altered migration in electrophoresis.
In another data set the target is ERRalpha FL (UniProt P11474). The following applies: EMSA: 50 nM bacterially purified protein, 60 ng poly(dI-dC); recombinant protein; protein details: GST.
The next data set has as its target T1, CUX1 CR1 (UniProt P39880).
T1 sequence (looked up, limits assumed): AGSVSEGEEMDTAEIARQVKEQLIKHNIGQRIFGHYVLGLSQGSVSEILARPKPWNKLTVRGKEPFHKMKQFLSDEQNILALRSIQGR
To be noted: only a weak complex; EMSA: 50 nM bacterially purified protein, 60 ng poly(dI-dC); recombinant protein; protein details: N-terminal His.

A further data set addresses T2, CUX1 CR1CR2 (UniProt P39880).
T2 sequence (looked up, limits assumed): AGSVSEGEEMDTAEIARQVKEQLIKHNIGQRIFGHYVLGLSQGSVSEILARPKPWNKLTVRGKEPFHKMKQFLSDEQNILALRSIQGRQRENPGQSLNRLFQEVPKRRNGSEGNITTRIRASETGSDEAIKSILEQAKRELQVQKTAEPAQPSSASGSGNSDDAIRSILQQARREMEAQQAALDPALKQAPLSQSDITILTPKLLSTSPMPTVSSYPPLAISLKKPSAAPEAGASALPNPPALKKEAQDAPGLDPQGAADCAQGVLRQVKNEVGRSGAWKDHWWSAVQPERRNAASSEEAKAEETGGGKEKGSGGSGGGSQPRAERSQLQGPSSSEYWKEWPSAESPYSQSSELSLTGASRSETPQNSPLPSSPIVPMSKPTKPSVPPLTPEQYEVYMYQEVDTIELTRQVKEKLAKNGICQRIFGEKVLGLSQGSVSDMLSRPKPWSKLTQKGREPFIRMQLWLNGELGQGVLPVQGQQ
To be noted: strong complex; EMSA: 50 nM bacterially purified protein, 60 ng poly(dI-dC); recombinant protein; protein details: N-terminal His.

The next data set concerns CUX1 Inh-CR1CR2. The following applies: binding greatly reduced vs CR1CR2; EMSA: 50 nM bacterially purified protein, 60 ng poly(dI-dC); recombinant protein; protein details: N-terminal His.

For at least one entry, the source does not settle the construct or the ends of the probe. For some assays here: A weaker result is weaker than the reference pair of the same experiment. For some assays here: Protein sequences can lack the tags named with them.

For “GCGTCCAGATGAAGATCAAAGAA (double strand) [ERRalpha consensus binding site]”, the binding result with ERRalpha DBD and with ERRalpha FL was “binds” throughout.

For the sequence “TCGAGAAATGAAGCTTATCGATATCGTCTCGA (double strand) [CUX1 consensus binding site]”, the binding result with CUX1 CR1 is “binds more weakly”; with CUX1 CR1CR2, “binds”; with CUX1 Inh-CR1CR2 it was “binds more weakly”.
